Reference: PubChem BioAssay AID1224828 (NIAID, 2016)
The deposit covers about 17,000 reagents; shown is a random part of them. Of all reagents, 762 (4.5%) were called active. 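Active calls include both raised and lowered p65 entry, mostly lowered; wells with fewer than 50 cells lack a z-score.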 Raw values are not corrected between plates. A number with no mark means an inactive call. The numbers tell different reagents against one gene apart.

- Test: 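Knock-downs that increase or decrease LPS-induced p65 nuclear translocation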 (primary screen)
- Cells: mouse RAW264.7 G9 macrophage reporter cells (GFP-p65, Tnf promoter-mCherry)
- Reagent: siRNA pool against mouse genes, 100 nM
- Timing: 2 days siRNA transfection, then 40 min LPS before fixation
- Challenge: LPS (Salmonella minnesota R595) at 10 ng/ml
- Measurement: 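Imaged p65 nuclear translocation ratio, normalised to the plate median, converted to robust z-scores and averaged across two replicates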
- Reading the numbers: p65 translocation robust z-score: higher = more nuclear NF-kappaB p65 after LPS than the plate median; nuclear/cytoplasmic p65 ratio: higher = more nuclear NF-kappaB p65
- Hit rule: 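Active if robust z is above 3.3 (negative regulators) or below -1.56, the Tlr4 control median (positive regulators); activity score 50 or more; control wells not called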
- Calls: active = hit (p65 shift raised or lowered); inactive = no clear change

The first 6 entries, ahead of the listing:
p65 translocation robust z-score,"nuclear/cytoplasmic p65 ratio, rep 1","nuclear/cytoplasmic p65 ratio, rep 2",low cell count flag,target gene,reagent no.
0.3,1.53,1.4,enough cells to score,Col3a1 (GeneID 12825),1
-0.12,1.61,1.73,enough cells to score,Cadps (GeneID 27062),1
0.61,1.49,1.31,enough cells to score,Stxbp1 (GeneID 20910),1
0.26,1.38,1.52,enough cells to score,Tspan2 (GeneID 70747),1
,1.43,1.96,fewer than 50 cells per well; well left out of scoring,Aak1 (GeneID 269774),1
1.57,1.84,1.63,enough cells to score,Or5an10 (GeneID 258682),1

Results, from the first entry:
p65 translocation robust z-score,"nuclear/cytoplasmic p65 ratio, rep 1","nuclear/cytoplasmic p65 ratio, rep 2",low cell count flag,target gene,reagent no.
0.3,1.53,1.4,enough cells to score,Col3a1 (GeneID 12825),1
-0.12,1.61,1.73,enough cells to score,Cadps (GeneID 27062),1
0.61,1.49,1.31,enough cells to score,Stxbp1 (GeneID 20910),1
0.26,1.38,1.52,enough cells to score,Tspan2 (GeneID 70747),1
,1.43,1.96,fewer than 50 cells per well; well left out of scoring,Aak1 (GeneID 269774),1
1.57,1.84,1.63,enough cells to score,Or5an10 (GeneID 258682),1
-1.32,1.6,1.21,enough cells to score,Gstm3 (GeneID 14864),1
-0.35,1.46,1.31,enough cells to score,Insm2 (GeneID 56856),1
0.92,1.78,1.86,enough cells to score,Coq7 (GeneID 12850),1
0.71,1.6,1.37,enough cells to score,Mmp9 (GeneID 17395),1
1.25,1.8,1.61,enough cells to score,Sh3pxd2b (GeneID 268396),1
-1.57 (active),1.16,1.19,enough cells to score,Mindy3 (GeneID 66960),1
,1.21,1.2,fewer than 50 cells per well; well left out of scoring,Dcun1d5 (GeneID 76863),1
-0.3,1.16,1.16,enough cells to score,Tcp10a (GeneID 21461),1
,1.37,1.16,fewer than 50 cells per well; well left out of scoring,Tcp10a (GeneID 21461),2
0.73,1.58,1.47,enough cells to score,Diaph2 (GeneID 54004),1
-1.29,1.24,1.2,enough cells to score,Fancg (GeneID 60534),1
0.72,1.73,1.71,enough cells to score,Acadl (GeneID 11363),1
0.35,1.52,1.41,enough cells to score,Dhx40 (GeneID 67487),1
0.97,1.58,1.82,enough cells to score,Coq5 (GeneID 52064),1
1.98,1.71,1.29,enough cells to score,Or6b6 (GeneID 259037),1
-0.28,1.34,1.15,enough cells to score,Plod3 (GeneID 26433),1
0.36,1.58,1.43,enough cells to score,Ppp1cb (GeneID 19046),1
-0.67,1.66,1.39,enough cells to score,Or5d41 (GeneID 258525),1
-1.44,1.26,1.32,enough cells to score,Prex1 (GeneID 277360),1
-0.16,1.61,1.57,enough cells to score,Cacna1b (GeneID 12287),1
-0.36,1.54,1.59,enough cells to score,Arhgdib (GeneID 11857),1
-1.17,1.61,1.31,enough cells to score,Luzp2 (GeneID 233271),1
0.94,1.49,1.5,enough cells to score,Stk38l (GeneID 232533),1
1.03,1.73,2.02,enough cells to score,Duoxa1 (GeneID 213696),1
-2.48 (active),1.25,1.16,enough cells to score,Macrod1 (GeneID 107227),1
-1.34,1.27,1.08,enough cells to score,Phactr4 (GeneID 100169),1
-1.43,1.46,1.44,enough cells to score,Stk3 (GeneID 56274),1
0.34,1.78,1.55,enough cells to score,Cenpn (GeneID 72155),1
-0.13,1.35,1.44,enough cells to score,Frem2 (GeneID 242022),1
-0.88,1.56,1.41,enough cells to score,Bpnt1 (GeneID 23827),1
1.16,1.58,1.51,enough cells to score,Hsf1 (GeneID 15499),1
0.27,1.65,1.48,enough cells to score,Galnt10 (GeneID 171212),1
-0.09,1.76,1.46,enough cells to score,Gar1 (GeneID 68147),1
1.81,1.69,1.61,enough cells to score,Dnd1 (GeneID 213236),1
-0.82,1.32,1.32,enough cells to score,Nup153 (GeneID 218210),1
-0.29,1.48,1.81,enough cells to score,Cfl2 (GeneID 12632),1
,1.04,1.14,fewer than 50 cells per well; well left out of scoring,Uqcc2 (GeneID 67267),1
-0.42,1.31,1.2,enough cells to score,Unc5d (GeneID 210801),1
,1.31,1.24,fewer than 50 cells per well; well left out of scoring,Kifc2 (GeneID 16581),1
1.01,1.55,1.56,enough cells to score,Cfh (GeneID 12628),1
0.38,1.57,1.56,enough cells to score,Melk (GeneID 17279),1
-0.33,1.55,1.48,enough cells to score,Dync2i1 (GeneID 217935),1
,1.37,1.47,fewer than 50 cells per well; well left out of scoring,Idh1 (GeneID 15926),1
1.24,1.76,2,enough cells to score,Pomgnt2 (GeneID 215494),1
,1.5,1.3,fewer than 50 cells per well; well left out of scoring,Krt6b (GeneID 16688),1
0.21,1.56,1.53,enough cells to score,Ramp2 (GeneID 54409),1
-2.33 (active),1.12,1.1,enough cells to score,Oog3 (GeneID 100012),1
0.72,1.67,1.55,enough cells to score,Ubr1 (GeneID 22222),1
0.21,1.59,1.59,enough cells to score,Bltp1 (GeneID 229227),1
0.37,1.28,1.38,enough cells to score,Bltp1 (GeneID 229227),2
0.02,1.52,1.52,enough cells to score,Rbp3 (GeneID 19661),1
0.56,1.62,1.4,enough cells to score,Dmrt1 (GeneID 50796),1
0.74,1.52,1.05,enough cells to score,Ssxb13 (GeneID 382206),1
